Experimental data reported in PMC3942417.
These are yes or no findings as the source states them, for the method shown. Binding seen in cells or lysates may run through a third protein. Some results given as binding are weak or reduced against the parent protein; the word gives no strength. One block for each molecule: values may come before it.

Protein sequences, listed by entry. Tags and fused reporters are not part of them. Lines headed by an entry give the natural chain unless they say otherwise; changes in a name come on top.
UniProt P17301: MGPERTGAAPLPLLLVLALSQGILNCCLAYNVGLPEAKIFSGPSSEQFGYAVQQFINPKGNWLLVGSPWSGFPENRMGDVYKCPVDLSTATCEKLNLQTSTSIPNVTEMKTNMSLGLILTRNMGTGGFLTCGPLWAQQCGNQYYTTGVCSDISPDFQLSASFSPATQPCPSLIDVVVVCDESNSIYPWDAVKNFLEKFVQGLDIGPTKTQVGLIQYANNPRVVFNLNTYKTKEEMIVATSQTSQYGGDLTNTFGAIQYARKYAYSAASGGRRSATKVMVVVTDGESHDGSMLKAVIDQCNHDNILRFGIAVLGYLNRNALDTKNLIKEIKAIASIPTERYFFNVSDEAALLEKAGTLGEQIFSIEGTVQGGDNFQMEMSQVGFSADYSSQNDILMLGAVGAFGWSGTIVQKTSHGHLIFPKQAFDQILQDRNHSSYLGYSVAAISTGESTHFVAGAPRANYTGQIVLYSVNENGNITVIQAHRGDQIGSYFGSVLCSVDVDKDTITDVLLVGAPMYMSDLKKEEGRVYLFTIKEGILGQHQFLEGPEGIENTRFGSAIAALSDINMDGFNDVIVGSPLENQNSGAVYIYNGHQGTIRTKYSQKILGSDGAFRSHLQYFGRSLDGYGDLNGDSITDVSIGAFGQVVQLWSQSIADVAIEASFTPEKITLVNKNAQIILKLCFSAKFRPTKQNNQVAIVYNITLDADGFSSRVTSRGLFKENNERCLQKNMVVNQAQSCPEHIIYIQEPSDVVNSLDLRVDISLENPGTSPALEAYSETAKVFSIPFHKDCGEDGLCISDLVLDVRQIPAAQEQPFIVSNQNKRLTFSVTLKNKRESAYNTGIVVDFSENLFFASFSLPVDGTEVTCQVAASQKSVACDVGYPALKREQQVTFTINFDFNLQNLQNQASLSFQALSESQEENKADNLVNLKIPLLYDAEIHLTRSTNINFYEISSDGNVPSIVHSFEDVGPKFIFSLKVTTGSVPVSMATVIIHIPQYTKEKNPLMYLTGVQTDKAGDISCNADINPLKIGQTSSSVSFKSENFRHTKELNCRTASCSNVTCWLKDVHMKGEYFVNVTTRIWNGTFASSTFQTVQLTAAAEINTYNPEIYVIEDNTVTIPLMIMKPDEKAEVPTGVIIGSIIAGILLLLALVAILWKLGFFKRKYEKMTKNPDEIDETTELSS
UniProt P05556: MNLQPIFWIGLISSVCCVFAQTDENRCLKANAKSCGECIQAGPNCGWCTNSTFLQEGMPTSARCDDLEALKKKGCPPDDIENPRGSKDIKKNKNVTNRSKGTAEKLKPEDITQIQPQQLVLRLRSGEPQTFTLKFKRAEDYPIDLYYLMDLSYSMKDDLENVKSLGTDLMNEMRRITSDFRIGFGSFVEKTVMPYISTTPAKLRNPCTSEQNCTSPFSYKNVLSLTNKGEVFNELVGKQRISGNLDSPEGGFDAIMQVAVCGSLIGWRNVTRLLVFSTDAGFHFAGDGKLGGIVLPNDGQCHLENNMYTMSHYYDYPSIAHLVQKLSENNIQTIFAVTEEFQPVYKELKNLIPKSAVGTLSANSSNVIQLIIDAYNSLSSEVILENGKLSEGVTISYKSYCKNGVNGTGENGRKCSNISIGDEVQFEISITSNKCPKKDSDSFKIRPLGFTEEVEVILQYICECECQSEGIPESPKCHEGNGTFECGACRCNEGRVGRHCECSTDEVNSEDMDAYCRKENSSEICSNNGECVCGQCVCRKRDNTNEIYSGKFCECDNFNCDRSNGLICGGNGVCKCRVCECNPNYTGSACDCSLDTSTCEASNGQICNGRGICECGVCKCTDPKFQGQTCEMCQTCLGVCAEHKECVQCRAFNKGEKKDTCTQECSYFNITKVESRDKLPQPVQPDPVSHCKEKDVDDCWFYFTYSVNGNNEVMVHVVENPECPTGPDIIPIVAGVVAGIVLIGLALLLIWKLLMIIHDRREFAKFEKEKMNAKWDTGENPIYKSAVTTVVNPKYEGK

Tests used:
[1] = molecular target: T1, Transforming growth factor (TGF)-β-inducible gene-h3 (βig-h3) (human (endogenous in Saos-2)) (UniProt Q15582); experiment: co-IP; Saos-2 cells lysed in 1% OG buffer; lysates precipitated with protein A-agarose pre-bound with anti-βig-h3, anti-integrin α2 or anti-integrin β1 antibodies, four washes; Western blot of the immune complexes; anti-IgG as negative control
T1 sequence: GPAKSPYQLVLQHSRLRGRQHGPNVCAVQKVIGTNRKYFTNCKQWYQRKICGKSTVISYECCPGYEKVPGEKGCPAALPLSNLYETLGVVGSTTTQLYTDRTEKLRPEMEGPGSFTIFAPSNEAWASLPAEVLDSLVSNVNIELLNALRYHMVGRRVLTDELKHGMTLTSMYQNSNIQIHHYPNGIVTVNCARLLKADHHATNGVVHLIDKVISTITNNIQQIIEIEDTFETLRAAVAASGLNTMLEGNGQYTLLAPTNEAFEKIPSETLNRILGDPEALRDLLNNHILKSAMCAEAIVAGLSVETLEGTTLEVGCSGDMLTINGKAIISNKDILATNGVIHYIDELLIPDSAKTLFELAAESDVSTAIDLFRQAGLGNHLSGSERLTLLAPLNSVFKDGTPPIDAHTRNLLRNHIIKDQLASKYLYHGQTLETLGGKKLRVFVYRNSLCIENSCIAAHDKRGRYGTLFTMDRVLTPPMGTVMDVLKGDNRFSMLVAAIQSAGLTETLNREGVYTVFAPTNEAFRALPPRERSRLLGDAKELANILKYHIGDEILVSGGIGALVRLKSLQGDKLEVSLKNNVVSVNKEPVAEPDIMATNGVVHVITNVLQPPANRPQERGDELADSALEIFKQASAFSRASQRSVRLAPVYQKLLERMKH

[2] = molecular target: integrin α2β1 (human (endogenous in Saos-2)) (UniProt P17301+P05556); experiment: as above

binding [1]: binds
Molecule: integrin α2β1 (from UniProt P17301 30-1181; P05556 21-798) (complex)

binding [2]: binds
B1: Transforming growth factor (TGF)-β-inducible gene-h3 (βig-h3) (protein, UniProt Q15582 24-683)
chain: T1 sequence
